Measurements taken from patent US20240294618A1 (CENTIVAX, published 2024).
These are yes or no findings as the source states them, for the method shown. Some entries that bind do so weakly or less than the wild type. For some assays here: Sequences can lack the tags named with a protein.

Experiments:
[1] = biological target: T1, long-neurotoxin-krait (bungarus) (alpha-bungarotoxin) (krait (Bungarus caeruleus)) (UniProt D2N116); test: Biacore and Octet HTX kinetics assays
T1 sequence: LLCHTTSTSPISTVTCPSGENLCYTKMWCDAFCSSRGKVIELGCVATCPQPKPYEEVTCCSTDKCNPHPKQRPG

[2] = biological target: T2, long-neurotoxin-taipan, recombinant, Taipan-Avi-His (coastal taipan (Oxyuranus scutatellus)) (UniProt A8HDK9); test: Biacore and Octet HTX kinetics assays
T2 sequence: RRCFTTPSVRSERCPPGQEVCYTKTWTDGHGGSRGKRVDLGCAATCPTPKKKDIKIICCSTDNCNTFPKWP

B1: SNEURO_P01_B11 (antibody, V domains shown)
VH: QVQLQESGGGLVQPGGSLRLSCAASGFTFSNFDMHWVRQSPGKGLEWVSGLDHSGGAHYAGSVKGRFTISREDAKNSLDLQMNNLRVDDTAVYFCVRGTLYHYTSGSYYSDAFDIWGQGTLVTVSS
VL: DIVMTQSPSSLSASVGDRVTITCRASQGISDNLNWYQQKPGKAPKLLIYAASTLQSGVPSRLSGSGSGTDFTLTISSLQPEDFATYYCQQANSFPLTFGGGTKVEIKR
binding [1]: binds | binding [2]: binds
